{
  "source": "patent US20240166755A1",
  "about": "(UNIVERSITY OF SOUTHERN CALIFORNIA, published 2024)",
  "binders": {"B1": {"name": "CD8SP-FMC63-(vL-vH)-Myc-BBz-T2A-PAC(112014-A13) (scFv)", "chain": "DIQMTQTTSSLSASLGDRVTISCRASQDISKYLNWYQQKPDGTVKLLIYHTSRLHSGVPSRFSGSGSGTDYSLTISNLEQEDIATYFCQQGNTLPYTFGGGTKLEITGGGGSGGGGSGGGGSEVKLQESGPGLVAPSQSLSVTCTVSGVSLPDYGVSWIRQPPRKGLEWLGVIWGSETTYYNSALKSRLTIIKDNSKSQVFLKMNSLQTDDTAIYYCAKHYYYGGSYAMDYWGQGTSVTVSSRVEQKLISEEDLAKPTTTPAPRPPTPAPTIASQPLSLRPEACRPAAGGAVHTRGLDFACDIYIWAPLAGTCGVLLLSLVITLYCKRGRKKLLYIFKQPFMRPVQTTQEEDGCSCRFPEEEEGGCELRVKFSRSADAPAYQQGQNQLYNELNLGRREEYDVLDKRRGRDPEMGGKPRRKNPQEGLYNELQKDKMAEAYSEIGMKGERRRGKGHDGLYQGLSTATKDTYDALHMQALPPRSSGSGEGRGSLLTCGDVEENPG", "notes": "the entry is the whole encoded polyprotein (CD8 signal peptide, scFv, Myc, CD8 hinge/TM, 41BB, CD3z, T2A, PAC)"}},
  "biological_target": "T1, MPL-ECD-GGSG-Nluc-AcV5 (human)",
  "T1 construct": "the entry includes the native signal peptide; also called MPL-GGSG-NLuc-AcV5; MPL-GGSG-NLuc AcV5",
  "T1 chain": "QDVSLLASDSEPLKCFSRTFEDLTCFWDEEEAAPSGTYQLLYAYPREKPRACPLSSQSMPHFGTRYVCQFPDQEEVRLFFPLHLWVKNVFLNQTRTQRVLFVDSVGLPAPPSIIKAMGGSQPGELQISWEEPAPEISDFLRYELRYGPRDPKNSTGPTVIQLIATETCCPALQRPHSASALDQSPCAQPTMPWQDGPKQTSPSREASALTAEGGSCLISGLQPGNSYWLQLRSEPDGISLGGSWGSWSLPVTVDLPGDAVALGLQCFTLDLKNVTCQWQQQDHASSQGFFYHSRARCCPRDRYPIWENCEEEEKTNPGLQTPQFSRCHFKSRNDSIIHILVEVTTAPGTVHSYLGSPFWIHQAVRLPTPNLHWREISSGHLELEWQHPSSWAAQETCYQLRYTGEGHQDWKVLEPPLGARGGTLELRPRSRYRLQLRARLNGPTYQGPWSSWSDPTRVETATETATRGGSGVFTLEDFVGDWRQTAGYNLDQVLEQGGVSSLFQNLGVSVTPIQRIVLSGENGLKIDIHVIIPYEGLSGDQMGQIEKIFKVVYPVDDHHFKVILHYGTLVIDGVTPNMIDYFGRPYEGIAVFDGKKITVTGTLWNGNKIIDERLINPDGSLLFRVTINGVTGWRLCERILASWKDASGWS",
  "assay": "NLuc assay: CAR on transfected 293FT cells incubated with MPL-ECD-GGSG-NLuc-AcV5 supernatant",
  "data": [
    {"binder": "B1", "values": [
      {"measurement": "binding result", "result": "no binding"}
    ]}
  ]
}
